Reference: publication PMC5963859
For at least one entry, the source does not settle the construct or the ends of the probe.

System: GST-MBNL1-HIS
Assay: fluorescence polarization
Details: 50 nM RNA, 400 nM protein (optimal shift); recombinant protein

CUGCUGCUGCUGCUGCUGCUGCUGCUGCUGCUGCUGCUGCUGCUGCUGCUGCUGCUGCUGCUGCUGCUGCUGCUGCUG [TRITC-(CUG)26 RNA]
binding result: binds
